Literature values as cited in US20080119444A1, “Methods and compositions for the treatment of cancer” (priority 2006, published 2008).
At least one structure is not confirmed: it was looked up by name or label, or the drawing left a doubt.

Conditions: fracture cases vs age and gender-matched controls

## CC[C@H](C)C(=O)O[C@H]1C[C@H](O)C=C2C=C[C@H](C)[C@H](CC[C@@H](O)C[C@@H](O)CC(=O)O)[C@H]21 [pravastatin]
  risk of any fracture, adj. OR: 1.02
